Results are given in words; binding and its absence hold for the method and conditions named. Binding calls can cover weak binding; strength is not graded here. Sequences can lack the tags named with a protein.

Protein sequences, listed by entry. Tags and fused reporters are not part of them. Lines headed by an entry give the natural chain unless they say otherwise; changes in a name come on top.
UniProt Q1D3Z1: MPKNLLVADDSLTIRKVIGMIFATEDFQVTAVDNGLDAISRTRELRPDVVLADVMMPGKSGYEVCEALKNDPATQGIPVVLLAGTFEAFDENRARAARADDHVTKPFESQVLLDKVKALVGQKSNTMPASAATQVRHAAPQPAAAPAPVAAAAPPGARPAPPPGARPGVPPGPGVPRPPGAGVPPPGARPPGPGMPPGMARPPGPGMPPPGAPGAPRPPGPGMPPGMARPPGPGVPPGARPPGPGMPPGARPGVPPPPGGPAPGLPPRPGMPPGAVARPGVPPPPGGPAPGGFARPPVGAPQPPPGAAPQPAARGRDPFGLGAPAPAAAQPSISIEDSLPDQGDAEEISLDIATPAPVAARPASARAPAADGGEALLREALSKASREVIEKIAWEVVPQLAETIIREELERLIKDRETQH

For two molecules, binding results are on record in article PMC3441718.

Experiment [1] addresses T1, N-terminally GST-tagged MglA (M. xanthus) (UniProt Q1DB04).
T1 sequence: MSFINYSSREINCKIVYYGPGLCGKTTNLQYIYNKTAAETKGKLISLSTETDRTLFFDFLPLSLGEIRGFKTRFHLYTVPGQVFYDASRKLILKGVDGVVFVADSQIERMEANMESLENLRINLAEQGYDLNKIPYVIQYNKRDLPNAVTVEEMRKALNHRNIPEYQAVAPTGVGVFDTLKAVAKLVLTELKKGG
As to the kind of experiment: pull-down; 0.2 mg purified His6-RomR mixed with 0.2 mg purified GST-MglA or GST, glutathione beads, buffer D (50 mM NaH2PO4 pH 8.0, 300 mM NaCl), 5 h, 4°C; elution with 10 mM glutathione; immunoblot with anti-GST and anti-RomR; both purified. For orientation: A western blot detects proteins with antibodies after separation by electrophoresis.

The target in experiment [2] is MalE-tagged RomR (M. xanthus) (UniProt Q1D3Z1). Nature of the experiment: pull-down; 0.2 mg purified His6-MglB mixed with 0.2 mg purified MalE-RomR or MalE, amylose beads, buffer D (50 mM NaH2PO4 pH 8.0, 300 mM NaCl), 5 h, 4°C; elution with 10 mM maltose; immunoblot with anti-MalE and anti-MglB; both purified.

Regarding “N-terminally His6-tagged RomR (from UniProt Q1D3Z1)”, the binding result in experiment [1] is on record as “binds”.

B1: N-terminal His6-tagged MglB (protein, UniProt Q1DB03 1-159)
chain: MGTQLVMYEEEFTKINAVCDRLTKDANAKVVFLVDKNGQLISSAGQTQNIDTTSLASLTAGNVAAMGGLAKLIGENEFPNQFHEGAKDSLYMTIVGSRVVLVVIFDNRTSLGLVRLRIKKASDELTKIFESLVKKTDSPGAGSPFAEISDDDIDNLFSE
Consider B1, for which the binding entry in experiment [2] is reported as “binds”.
